Data published in patent US20240382438A1, “Calcium Channel Blockers and Methods Thereof” (University of Maryland, Eastern Shore, priority 2023, published 2024).
“Also recorded” adds a separate entry of the source. Some entries repeat one wording, which the source may state once for all of them.

Tests used:
T-type Ca^2+ channels = assay: Whole-cell recording of T-type Ca2+ currents in differentiated ND7/23 cells; assay type: cell-based, mouse neuroblastoma and rat dorsal root ganglion cells; conditions: 50 μM, Ca2+ current recordings
Protocol: (§1) ND7/23 cells are derived from the fusion of mouse neuroblastoma and rat dorsal root ganglion cells, which generates a more homogeneous sensory neuron-like cell population. ND7/23 cells were purchased from Sigma-Aldrich (RRID:CVCL_4259). Culture and differentiation of ND7/23 cells was performed as previously described. Briefly, ND7/23 cells were cultured in DMEM/F12 culture media (Millipore, Cat. #DF-041-B), supplemented with 0.5% fetal bovine serum (Invitrogen, Cat. #10437010), db-cAMP (1 mM, Sigma-Aldrich, Cat. #D0627), and nerve growth factor (NGF, 50 ng/mL, Sigma-Aldrich, Ca. #N2513). To remove any proliferating cells, cultures were treated with uridine (20 μM, Sigma-Aldrich, Cat. #U3003) and fluorodeoxyuridine (20 μM, Sigma-Aldrich, Cat. #F0503). Cells were maintained in differentiation media without uridine and fluorodeoxyuridin after induction of differentiation. ND7/23 cells were maintained in differentiation media for ≤6 days. HEK 293 cells that were stabled transfected with the human Cav3.2 and Cav3.3 channel subunits were a gift of Dr. E. Perez-Reyes (University of Virginia). Cav3.2 (or Cav3.3)-stabled transfected HEK 293 cells were culture in DMEM/F12 culture media, supplemented with 5% fetal bovine serum, 50 U/mL penicillin and 50 μg/mL streptomycin. ND7/23 and HEK 293 cells were grown in an incubator at 37° C. in the presence of 5% CO2/95% air humidified atmosphere. Cells passaged less than 20 times were used in this work. Cells were grown in poly-D-lysine-coated glass coverslips for electrophysiological recordings.
(§2) Whole cell recordings were performed as previously described. A Nikon Eclipse Ti inverted microscope equipped with Hoffman optics and epifluorescence filters was used to visualize individual cells. Recordings were performed at room temperature (22-24° C.) using glass electrodes made from thin wall borosilicate glass (3-5 MΩ). For electrophysiological recordings of inward Ca^2+ currents, outward K^+ currents were eliminated by equimolar substitution of K^+ with Cs^+ in the pipette solution, whereas inward Na^+ currents were eliminated by the use of TEA ions in the external solution, which are unable to go through voltage-gated Na^+ channels. The pipette solution consisted of (in mM) CsCl (120), MgCl2(2), HEPES (10), EGTA (10), ATP (1), and GTP (0.1), pH 7.4 with CsOH. The composition of the normal external saline used for measurements of Ca^2+ currents was (in mM): tetraethylammonium chloride (TEACl, 145), CaCl2 (10), MgCl2(1), HEPES (10), and glucose (5), pH 7.4 adjusted with CsOH. Ca^2+ currents were generated by applying a 200-500 ms-depolarizing step to various potentials from a holding potential of −100 mV. The external solution used to measure Na^+ currents contained (in mM) NaCl (145), KCl (5.3), CaCl2 (0.5), MgCl2 (5.7), HEPES (13), and glucose (5), pH 7.4 adjusted with KOH. The composition of the CsCl-pipette solution used to record Na^+ currents was the same describe above. Na^+ currents were generated by applying a 20 ms-depolarizing step to various potentials from a holding potential of −100 mV. To assess drug-evoked changes on specific ionic conductances, current amplitudes were expressed as current densities as previously reported. To assess current densities, cell size was normalized by dividing current amplitudes by cell capacitance. Cell capacitance was determined by integrating the transient current evoked by a 10-mV voltage step from a holding potential of −60 mV.
A MULTICLAMP 700A amplifier and PCLAMP software (Axon Instruments) was used to deliver voltage commands and to perform data acquisition and analysis. Pipette offset, whole cell capacitance, and series resistance were compensated automatically with the MultiClamp 700B Commander. Only cells with stable seals and series resistance (≤10 MΩ) were analyzed. Sampling rates were between 5 and 10 kHz. Leak currents were subtracted online using a P/4 protocol. […]

[1] = system: voltage-activated Na^+ channels; assay: Whole-cell recording of Na+ currents in differentiated ND7/23 cells; assay type: cell-based, mouse neuroblastoma and rat dorsal root ganglion cells; conditions: 50 μM, Na+ current recordings
Protocol: as §1
as §2, with “Na^+ currents were generated by applying a 20 ms-depolarizing step to various potentials from a holding potential of −100 mV.” left out, “To assess current densities, cell size was normalized by dividing current amplitudes by cell capacitance.” left out
A MULTICLAMP 700A amplifier and PCLAMP software (Axon Instruments) was used to deliver voltage commands and to perform data acquisition and analysis. […] Only cells with stable seals and series resistance (≤10 MΩ) were analyzed. […]

Row | Structure (SMILES) | Effect on whole cell capacitance (T-type Ca^2+ channels) | Effect on whole cell capacitance [1] | Effect on whole cell capacitance (T-type Ca^2+ channels; listed as IAB65) | Effect on whole cell capacitance ([1]; listed as RHB 111) | Effect on whole cell capacitance (T-type Ca^2+ channels; listed as TTA40)
1 | CC1CC(=O)C=C(NC(=O)c2ccccc2C(F)(F)F)C1 (stereo not shown) [IAA61, N-(5-methyl-3-oxocyclohex-1-en-1-yl)-2-(trifluoromethyl) benzamide] | no effect on cell capacitance | no noticeable effect; also recorded: no effect on cell capacitance |  |  | 
2 | CC1CC(=O)C=C(NC(=O)c2cc(C(F)(F)F)cc(C(F)(F)F)c2)C1 (stereo not shown) [IAA65, N-(5-methyl-3-oxocyclohex-1-en-1-yl)-3,5-bis(trifluoromethyl) benzamide] | no effect on cell capacitance | no noticeable effect; also recorded: no effect on cell capacitance |  |  | 
3 | CC1CC(=O)C=C(NC(=O)c2cccc(C(F)(F)F)c2)C1 (stereo not shown) [IAB15, N-(5-methyl-3-oxocyclohex-1-en-1-yl)-3-(trifluoromethyl) benzamide] | no effect on cell capacitance | no noticeable effect; also recorded: no effect on cell capacitance |  |  | 
4 | CC1CC(=O)C=C(NC(=O)c2ccccc2F)C1 (stereo not shown) [IAB67, 2-fluoro-N-(5-methyl-3-oxocyclohex-1-en-1-yl) benzamide] | None of the tested compounds has any effect |  | no effect on cell capacitance |  | 
5 | CC(C)C1CC(=O)C=C(NC(=O)c2ccc(C(F)(F)F)cc2)C1 (stereo not shown) [IAC41, N-(5-isopropyl-3-oxocyclohex-1-en-1-yl)-4-(trifluoromethyl) benzamide] | None of the tested compounds has any effect; also recorded: no effect on cell capacitance |  |  |  | 
6 | O=C1C=C(NC(=O)c2cccc(OC(F)(F)F)c2)CC(C(F)(F)F)C1 (stereo not shown) [RHB121, N-(3-oxo-5-(trifluoromethyl)cyclohex-1-en-1-yl)-3-(trifluoromethoxy)benzamide] |  | does not affect |  | no effect on cell capacitance | 
7 | CC1CC(=O)C=C(NC(=O)c2ccc(C(F)(F)F)cc2)C1 (stereo not shown) [THA40, N-(5-methyl-3-oxocyclohex-1-en-1-yl)-4-(trifluoromethyl) benzamide] | None of the tested compounds has any effect |  |  |  | no effect on cell capacitance
